These are yes or no findings as the source states them, for the method shown. Binding seen in cells or lysates may run through a third protein. Some entries that bind do so weakly or less than the wild type.
Molecular target: T1, Promyelocytic leukemia (PML) protein (mouse (endogenous in NMCMs)) (UniProt Q60953)
T1 sequence: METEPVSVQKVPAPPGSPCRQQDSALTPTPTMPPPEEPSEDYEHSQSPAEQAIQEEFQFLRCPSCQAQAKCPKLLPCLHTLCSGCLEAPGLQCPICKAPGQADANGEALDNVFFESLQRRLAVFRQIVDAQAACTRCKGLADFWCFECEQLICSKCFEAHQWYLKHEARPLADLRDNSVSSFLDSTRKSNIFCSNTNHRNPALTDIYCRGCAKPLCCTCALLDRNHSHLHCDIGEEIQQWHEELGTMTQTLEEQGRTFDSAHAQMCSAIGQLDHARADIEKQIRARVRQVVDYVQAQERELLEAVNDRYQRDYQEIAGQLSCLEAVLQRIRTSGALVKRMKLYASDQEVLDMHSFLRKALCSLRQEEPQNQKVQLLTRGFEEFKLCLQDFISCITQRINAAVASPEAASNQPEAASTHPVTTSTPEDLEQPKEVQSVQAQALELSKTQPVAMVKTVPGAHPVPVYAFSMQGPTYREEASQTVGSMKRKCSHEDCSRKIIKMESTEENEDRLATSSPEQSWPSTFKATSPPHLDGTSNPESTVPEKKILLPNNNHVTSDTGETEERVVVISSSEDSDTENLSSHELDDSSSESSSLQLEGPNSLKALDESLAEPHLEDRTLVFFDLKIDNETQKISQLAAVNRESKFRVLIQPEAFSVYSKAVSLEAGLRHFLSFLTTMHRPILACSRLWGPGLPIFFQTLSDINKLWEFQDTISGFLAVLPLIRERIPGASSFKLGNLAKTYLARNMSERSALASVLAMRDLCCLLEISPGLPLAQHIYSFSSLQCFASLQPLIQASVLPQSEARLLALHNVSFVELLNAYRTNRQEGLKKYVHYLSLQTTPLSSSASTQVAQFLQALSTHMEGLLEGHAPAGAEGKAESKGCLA
Assay: co-IP; NMCM lysate in RIPA buffer, 500 ug protein; anti-PML or anti-Pin1 antibody at 4°C overnight, Protein A/G agarose beads 8 h at 4°C, rinsed five times with TBST; immunoblot for the other protein

Amino acid sequences for entries named in this document (tags omitted).
UniProt Q9QUR7: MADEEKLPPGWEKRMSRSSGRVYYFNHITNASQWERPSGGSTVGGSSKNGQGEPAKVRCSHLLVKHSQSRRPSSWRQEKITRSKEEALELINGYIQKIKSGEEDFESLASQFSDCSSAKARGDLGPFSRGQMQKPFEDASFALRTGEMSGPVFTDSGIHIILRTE

Pin1 (from UniProt Q9QUR7 1-165)
binding: binds

Reference: publication PMC5542199
